Measured values taken from patent US12501917B2, “Methods and compositions for treating intestinal disorder” (MARS, INCORPORATED, priority 2019, dated 2025).
Read-outs that look alike come from different tables or passages of the source. At least one compound was matched to its structure with a doubt left.

Tests used:
[1] = system: canine clinical isolates of E. coli; assay: In vitro bacterial growth inhibition assay, E. coli; assay type: cell-based; details: isolate (n=1) from dogs with active disease; deoxycholic acid by microbroth dilution OD630, lithocholic acid by colony counts on agar
[2] = system: canine clinical isolates of C. perfringens; assay type: cell-based; details: isolates (n=3) from dogs with active disease, deoxycholic acid by microbroth dilution OD630, lithocholic acid by colony counts on agar

Compound | inhibition of in vitro growth of E. coli [1] | inhibition of in vitro growth of C. perfringens [2] | inhibition of in vitro growth of C. perfringens ([2]; listed as Deoxycholic acid)
C[C@H](CCC(=O)O)[C@H]1CC[C@H]2[C@@H]3CC[C@@H]4C[C@H](O)CC[C@]4(C)[C@H]3C[C@H](O)[C@]12C [deoxycholic acid] | potent inhibitors | potent inhibitors | blocked the growth
C[C@H](CCC(=O)O)[C@H]1CC[C@H]2[C@@H]3CC[C@@H]4C[C@H](O)CC[C@]4(C)[C@H]3CC[C@]12C [lithocholic acid] | potent inhibitors | not and potent inhibitors | 
